This note sets out measurements from PMC9958131 (Nature Communications, 2023).

This assay concerns PAD2 / PAD4. Kind of assay: Citrullination site mapping of fibrinogen and vimentin by trypsin digestion, protein-level sheet (native, PAD2- and PAD4-citrullinated samples searched together). The class given is biochemical, Homo sapiens. Particulars: deamidated Arg (= citrullinated) positions found by Sequest HT after trypsin digestion; one list for all six samples (native, PAD2-, PAD4-citrullinated fibrinogen and vimentin); co-purified/contaminant proteins. The text has this: Description: Raw mass spectrometry data for proteolytic mapping of fibrinogen, vimentin, and hnRNP A2/B1 by cathepsins B, S, and H (sheets 1-6); citrullination site mapping of fibrinogen and vimentin by trypsin digestion (sheets 7-8); and the natural antigen processing assay with native, PAD2-citrullinated (PAD2-cit), and PAD4-citrullinated (PAD4-cit) fibrinogen (sheets 9-11).

On to “MPVARSWVCRKTYVTPRRPFEKSRLDQELKLIGEYGLRNKREVWRVKFTLAKIRKAARELLTLDEKDPRRLFEGGSL [Peptide F2Z3C0]”, for which the Modifications entry was “Deamidated [R38]”.
